This passage reports binding results from publication doi:10.1101/414367.

No constants are given. Whether binding was seen depends on the method and setting. Binding seen in cells or lysates may run through a third protein. A yes stands for co-enrichment or nearness to the bait. Other partners may have been found. No binding means not detected with the bait. Where a sequence is shown, tags or fusion partners need not be part of it.

In the test the target is T1, Cex1-HA (S. cerevisiae) (UniProt Q12453).
T1 sequence: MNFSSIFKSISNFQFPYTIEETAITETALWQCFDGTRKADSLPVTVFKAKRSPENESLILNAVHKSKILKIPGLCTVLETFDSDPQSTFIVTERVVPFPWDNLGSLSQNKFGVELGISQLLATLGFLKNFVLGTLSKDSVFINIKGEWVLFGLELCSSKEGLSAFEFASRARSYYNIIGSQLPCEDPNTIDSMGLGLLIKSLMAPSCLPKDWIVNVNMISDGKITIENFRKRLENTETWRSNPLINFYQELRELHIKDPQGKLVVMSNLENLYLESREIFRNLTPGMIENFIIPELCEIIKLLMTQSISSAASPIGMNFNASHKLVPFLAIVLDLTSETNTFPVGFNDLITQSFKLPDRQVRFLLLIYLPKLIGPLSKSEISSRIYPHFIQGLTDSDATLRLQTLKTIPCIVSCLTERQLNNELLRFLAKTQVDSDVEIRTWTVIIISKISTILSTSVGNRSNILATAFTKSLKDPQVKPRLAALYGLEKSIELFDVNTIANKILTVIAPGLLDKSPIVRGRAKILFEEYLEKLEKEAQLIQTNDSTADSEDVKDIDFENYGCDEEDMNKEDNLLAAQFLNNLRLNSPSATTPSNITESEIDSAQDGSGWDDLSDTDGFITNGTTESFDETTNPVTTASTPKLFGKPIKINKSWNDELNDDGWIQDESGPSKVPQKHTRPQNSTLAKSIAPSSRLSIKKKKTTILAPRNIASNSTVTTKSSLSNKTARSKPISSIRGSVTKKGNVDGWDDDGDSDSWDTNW
The test is described as follows: affinity purification with mass spectrometry.

B1: Sec27 (protein, UniProt P41811 1-889)
chain: MKLDIKKTFSNRSDRVKGIDFHPTEPWVLTTLYSGRVELWNYETQVEVRSIQVTETPVRAGKFIARKNWIIVGSDDFRIRVFNYNTGEKVVDFEAHPDYIRSIAVHPTKPYVLSGSDDLTVKLWNWENNWALEQTFEGHEHFVMCVAFNPKDPSTFASGCLDRTVKVWSLGQSTPNFTLTTGQERGVNYVDYYPLPDKPYMITASDDLTIKIWDYQTKSCVATLEGHMSNVSFAVFHPTLPIIISGSEDGTLKIWNSSTYKVEKTLNVGLERSWCIATHPTGRKNYIASGFDNGFTVLSLGNDEPTLSLDPVGKLVWSGGKNAAASDIFTAVIRGNEEVEQDEPLSLQTKELGSVDVFPQSLAHSPNGRFVTVVGDGEYVIYTALAWRNKAFGKCQDFVWGPDSNSYALIDETGQIKYYKNFKEVTSWSVPMHSAIDRLFSGALLGVKSDGFVYFFDWDNGTLVRRIDVNAKDVIWSDNGELVMIVNTNSNGDEASGYTLLFNKDAYLEAANNGNIDDSEGVDEAFDVLYELSESITSGKWVGDVFIFTTATNRLNYFVGGKTYNLAHYTKEMYLLGYLARDNKVYLADREVHVYGYEISLEVLEFQTLTLRGEIEEAIENVLPNVEGKDSLTKIARFLEGQEYYEEALNISPDQDQKFELALKVGQLTLARDLLTDESAEMKWRALGDASLQRFNFKLAVEAFTNAHDLESLFLLHSSFNNKEGLVTLAKDAERAGKFNLAFNAYWIAGDIQGAKDLLIKSQRFSEAAFLGSTYGLGDDAVNDIVTKWKENLILNGKNTVSERVCGAEGLPGSSSSGDAQPLIDLDSTPAPEQADENKEAEVEDSEFKESNSEAVEAEKKEEEAPQQQQSEQQPEQGEAVPEPVEEES
Turning to B1, the binding result is “binds”.

B2: Sec28 (protein, UniProt P40509 1-296)
chain: MDYFNIKQNYYTGNFVQCLQEIEKFSKVTDNTLLFYKAKTLLALGQYQSQDPTSKLGKVLDLYVQFLDTKNIEELENLLKDKQNSPYELYLLATAQAILGDLDKSLETCVEGIDNDEAEGTTELLLLAIEVALLNNNVSTASTIFDNYTNAIEDTVSGDNEMILNLAESYIKFATNKETATSNFYYYEELSQTFPTWKTQLGLLNLHLQQRNIAEAQGIVELLLSDYYSVEQKENAVLYKPTFLANQITLALMQGLDTEDLTNQLVKLDHEHAFIKHHQEIDAKFDELVRKYDTSN
On to B2, for which the binding result is reported as “binds”.

B3: Vps27 (protein, UniProt P40343 1-622)
chain: MSVSTPSELDALIEQATSESIPNGDLDLPIALEISDVLRSRRVNPKDSMRCIKKRILNTADNPNTQLSSWKLTNICVKNGGTPFIKEICSREFMDTMEHVILREDSNEELSELVKTILYELYVAFKNDSQLNYVAKVYDKLISRGIKFPEKLTLSNSPTAMFDSKTPADWIDSDACMICSKKFSLLNRKHHCRSCGGVFCQEHSSNSIPLPDLGIYEPVRVCDSCFEDYDLKRHDDSKKSKKHRHKRKKDRDYSTPEDEEELIRKAIELSLKESRNSASSEPIVPVVESKNEVKRQEIEEEEDPDLKAAIQESLREAEEAKLRSERQKASRQMQPQQPSPQPQPIHSVDLSDEEKDSIYMFASLVEKMKSRPLNEILEDSKLQNLAQRVFASKARLNYALNDKAQKYNTLIEMNGKISEIMNIYDRLLEQQLQSINLSQQYTLPQVPSDPYNYLTENVQNPAESYQTPPLQQLSSHQYKPQQDVSRQQSVKANSSPTTNIDHLKTIDVTPHAQQKPQSHVELAPSDPPYPKEEAEDEGTQAVQDEESSTQESRERPYPVETENGETSINKRPQGITRYDFPTVPARKFVQPESTVPLPASSSEIPIKEERPPSPQEELLIEL
With B3, the binding entry is reported as “no binding”.

B4: Sec33 (protein, UniProt P53622 1-1201)
chain: MKMLTKFESKSTRAKGIAFHPSRPWVLVALFSSTIQLWDYRMGTLLHRFEDHEGPVRGLDFHPTQPIFVSAGDDYTIKVWSLDTNKCLYTLTGHLDYVRTVFFHRELPWIISASDDQTIRIWNWQNRKEIACLTGHNHFVMCAQFHPTDDLIVSASLDETIRIWDISGLRKRHSAPGTSSFEEQMSAQQNLLDGSLGDCVVKFILEGHTRGVNWASFHPTLPLIVSGSDDRQVKLWRMSATKAWEVDTCRGHTNNVDSVIFHPHQNLIISVGEDKTLRVWDLDKRTPVKQFKRENDRFWLIAAHPHINLFGAAHDSGIMVFKLDRERPCSFIHQNQLFFVNAEKQIQSFNFQKRVASLPYASLKGIGQPWDAFRSISYNPSQHSVLVNEANGKFALVILPKQPVGAVEPTSVTQDTGNFATFVGRNRFVVYNKNTESVEVRSLENKVTRNIKVEETVRTIVAAGPGSVLVIHPREVILYDVQQGKKVSQLAVKNVKYVSWSLDGQYVALMSKHTITLATKKLELINSMHETIRIKSAAWDETGVLIYSTLNHIRYSLLNGDRGIIKTLEKTLYITKVQGKLVYCLNREGEIEILTIDPTEYRFKKALVNKNFPEVLRLIKDSNLVGQNIISYLQKSGYPEIALQFVQDPHIRFDLALEYGNLDVALDEAKKLNDSSTWERLIQEALAQGNASLAEMIYQTQHSFDKLSFLYLVTGDVNKLSKMQNIAQTREDFGSMLLNTFYNNSTKERSSIFAEGGSLPLAYAVAKANGDEAAASAFLEQAEVDEQDVTLPDQMDASNFVQRPVISKPLEKWPLKEAELSYFEKAVLGQIDDLTIDDETPAVNTTQEQEEPLGEENFNDEDIGEDEGAWDLGDEDLDVGEELPEEVEQGEITSPAQEVETAIWIKNSKLPAVLVAAGAFDAAVQALSKQVGVVKLEPLKKYFTNIYEGCRTYIPSTPCELPAQLGYVRAYDDTVSEDQILPYVPGLDVVNEKMNEGYKNFKLNKPDIAIECFREAIYRITLLMVDDAEDEKLAHKILETAREYILGLSIELERRSLKEGNTVRMLELAAYFTKAKLSPIHRTNALQVAMSQHFKHKNFLQASYFAGEFLKIISSGPRAEQARKIKNKADSMASDAIPIDFDPYAKFDICAATYKPIYEDTPSVSDPLTGSKYVITEKDKIDRIAMISKIGAPASGLRIRV
For B4, the binding entry was “binds”.
